{
  "source": "patent US6455070B1",
  "about": "“Composition for treating symptoms of influenza” (East Park Research, Inc., priority 2001, dated 2002)",
  "origin": "cited, not measured here",
  "key": {"Salmonella enteritidis": {"system": "Salmonella enteritidis", "details": "in-vitro"}},
  "note": "For at least one compound, name, drawing or mass did not settle the structure.",
  "data": [
    {"compound": "C/C=C1/[C@H](O[C@@H]2O[C@H](CO)[C@@H](O)[C@H](O)[C@H]2O)OC=C(C(=O)OC)[C@H]1CC(=O)OCCc1ccc(O)c(O)c1", "note": "[oleuropein]", "values": [
      {"measurement": "effectiveness against Salmonella enteritidis", "setting": "Salmonella enteritidis", "value": "effective"},
      {"measurement": "effectiveness against enterotoxin B", "setting": "enterotoxin B", "value": "effective"},
      {"measurement": "protection of low density lipoprotein from oxidation", "setting": "low density lipoprotein", "value": "protect low density lipoprotein from oxidation"},
      {"measurement": "inhibition of platelet aggregation", "setting": "platelet aggregation", "value": "inhibit platelet aggregation"}
    ]}
  ]
}
